From paper PMC10702821
Results are given in words; binding and its absence hold for the method and conditions named. In cells and extracts the contact can be indirect. These calls come from enrichment with a bait or labelling near it, and not all partners need be listed. Sequences can lack the tags named with a protein.

Target: T1, 53BP1-V5 (endogenous 53BP1 with a biallelic V5-epitope tag at the C-terminus) (human (endogenous in hTERT-RPE1)), Q12888
T1 chain: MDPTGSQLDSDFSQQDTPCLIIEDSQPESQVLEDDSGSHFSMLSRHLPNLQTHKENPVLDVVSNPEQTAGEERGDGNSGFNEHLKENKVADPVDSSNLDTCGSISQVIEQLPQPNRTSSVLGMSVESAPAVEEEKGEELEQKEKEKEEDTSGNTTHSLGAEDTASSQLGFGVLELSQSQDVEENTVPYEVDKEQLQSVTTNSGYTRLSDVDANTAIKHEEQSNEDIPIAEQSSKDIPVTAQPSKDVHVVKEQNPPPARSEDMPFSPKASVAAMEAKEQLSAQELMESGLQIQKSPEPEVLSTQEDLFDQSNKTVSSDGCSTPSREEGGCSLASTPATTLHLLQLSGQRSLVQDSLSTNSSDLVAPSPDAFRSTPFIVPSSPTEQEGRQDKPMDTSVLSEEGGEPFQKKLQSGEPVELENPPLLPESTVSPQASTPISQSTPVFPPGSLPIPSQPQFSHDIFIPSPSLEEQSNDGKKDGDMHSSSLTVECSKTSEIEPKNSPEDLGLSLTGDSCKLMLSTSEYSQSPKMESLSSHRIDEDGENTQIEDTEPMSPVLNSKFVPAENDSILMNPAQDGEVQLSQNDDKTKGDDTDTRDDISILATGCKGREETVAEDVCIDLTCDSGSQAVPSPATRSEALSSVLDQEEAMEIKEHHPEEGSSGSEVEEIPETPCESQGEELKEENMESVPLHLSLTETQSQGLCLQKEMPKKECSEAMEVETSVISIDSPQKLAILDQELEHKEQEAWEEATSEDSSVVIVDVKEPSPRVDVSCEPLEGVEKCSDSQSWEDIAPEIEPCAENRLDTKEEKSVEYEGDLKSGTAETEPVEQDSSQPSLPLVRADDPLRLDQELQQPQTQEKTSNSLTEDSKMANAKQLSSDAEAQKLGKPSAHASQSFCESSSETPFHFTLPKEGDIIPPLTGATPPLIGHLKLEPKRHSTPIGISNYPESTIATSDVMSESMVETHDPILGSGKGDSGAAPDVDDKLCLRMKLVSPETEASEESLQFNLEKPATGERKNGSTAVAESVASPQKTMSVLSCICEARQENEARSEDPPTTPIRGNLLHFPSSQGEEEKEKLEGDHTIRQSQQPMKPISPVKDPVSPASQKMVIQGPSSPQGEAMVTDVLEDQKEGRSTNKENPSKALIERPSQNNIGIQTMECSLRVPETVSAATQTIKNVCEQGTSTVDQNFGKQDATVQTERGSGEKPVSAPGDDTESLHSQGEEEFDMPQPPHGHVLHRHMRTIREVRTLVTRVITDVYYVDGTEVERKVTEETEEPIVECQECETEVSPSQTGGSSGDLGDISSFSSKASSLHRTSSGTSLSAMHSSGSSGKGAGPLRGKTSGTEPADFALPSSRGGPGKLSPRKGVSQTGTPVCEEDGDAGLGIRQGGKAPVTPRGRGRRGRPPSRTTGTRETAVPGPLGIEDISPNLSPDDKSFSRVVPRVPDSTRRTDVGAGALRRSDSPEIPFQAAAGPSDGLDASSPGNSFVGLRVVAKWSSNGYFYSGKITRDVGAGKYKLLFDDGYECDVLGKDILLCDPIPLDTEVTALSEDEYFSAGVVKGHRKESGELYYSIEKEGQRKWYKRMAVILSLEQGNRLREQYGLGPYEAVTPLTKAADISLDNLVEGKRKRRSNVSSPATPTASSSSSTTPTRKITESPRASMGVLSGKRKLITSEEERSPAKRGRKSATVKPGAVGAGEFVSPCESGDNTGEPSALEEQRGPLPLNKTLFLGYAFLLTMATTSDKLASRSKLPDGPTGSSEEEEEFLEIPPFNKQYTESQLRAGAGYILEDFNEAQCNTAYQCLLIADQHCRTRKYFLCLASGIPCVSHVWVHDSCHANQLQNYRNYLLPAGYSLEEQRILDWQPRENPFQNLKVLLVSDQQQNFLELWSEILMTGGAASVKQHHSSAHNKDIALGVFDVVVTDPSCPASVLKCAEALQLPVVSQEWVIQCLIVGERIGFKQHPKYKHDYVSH
Test: affinity purification with mass spectrometry; anti-V5 immunoprecipitation (protein A resin, 4 h, 4°C) from lysate of RPE1 53BP1-V5 knock-in cells synchronised in prometaphase (thymidine, then nocodazole 10 h, mitotic shake-off); untagged RPE1 WT mitotic cells as control; LC-MS/MS
Conditions: remark: other sources report otherwise

binding: binds
B1: USP28, Q96RU2 1-1077 (enzyme)
chain: MTAELQQDDAAGAADGHGSSCQMLLNQLREITGIQDPSFLHEALKASNGDITQAVSLLTDERVKEPSQDTVATEPSEVEGSAANKEVLAKVIDLTHDNKDDLQAAIALSLLESPKIQADGRDLNRMHEATSAETKRSKRKRCEVWGENPNPNDWRRVDGWPVGLKNVGNTCWFSAVIQSLFQLPEFRRLVLSYSLPQNVLENCRSHTEKRNIMFMQELQYLFALMMGSNRKFVDPSAALDLLKGAFRSSEEQQQDVSEFTHKLLDWLEDAFQLAVNVNSPRNKSENPMVQLFYGTFLTEGVREGKPFCNNETFGQYPLQVNGYRNLDECLEGAMVEGDVELLPSDHSVKYGQERWFTKLPPVLTFELSRFEFNQSLGQPEKIHNKLEFPQIIYMDRYMYRSKELIRNKRECIRKLKEEIKILQQKLERYVKYGSGPARFPLPDMLKYVIEFASTKPASESCPPESDTHMTLPLSSVHCSVSDQTSKESTSTESSSQDVESTFSSPEDSLPKSKPLTSSRSSMEMPSQPAPRTVTDEEINFVKTCLQRWRSEIEQDIQDLKTCIASTTQTIEQMYCDPLLRQVPYRLHAVLVHEGQANAGHYWAYIYNQPRQSWLKYNDISVTESSWEEVERDSYGGLRNVSAYCLMYINDKLPYFNAEAAPTESDQMSEVEALSVELKHYIQEDNWRFEQEVEEWEEEQSCKIPQMESSTNSSSQDYSTSQEPSVASSHGVRCLSSEHAVIVKEQTAQAIANTARAYEKSGVEAALSEVMLSPAMQGVILAIAKARQTFDRDGSEAGLIKAFHEEYSRLYQLAKETPTSHSDPRLQHVLVYFFQNEAPKRVVERTLLEQFADKNLSYDERSISIMKVAQAKLKEIGPDDMNMEEYKKWHEDYSLFRKVSVYLLTGLELYQKGKYQEALSYLVYAYQSNAALLMKGPRRGVKESVIALYRRKCLLELNAKAASLFETNDDHSVTEGINVMNELIIPCIHLIINNDISKDDLDAIEVMRNHWCSYLGQDIAENLQLCLGEFLPRLLDPSAEIIVLKEPPTIRPNSPYDLCSRFAAVMESIQGVSTVTVK
